From PubChem BioAssay AID445 (National Center for Advancing Translational Sciences (NCATS), 2006)
The other results are listed elsewhere or left out. The main result of the screen is listed elsewhere. These columns were measured beside it and carry no call. Most of these compounds were active or inconclusive in the main read-out, so they are no random draw. Potencies come from curve fits of mixed quality, noted in brackets.

Assay: IkB Signaling
Conditions: ABC-DLBCL IkBa-CBG/CBR dual luciferase ratio (green luciferase fused to IkBa over red control in OCI-Ly3 lymphoma cells), 4 h
Summary of the method: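 Curves were fitted separately to fusion (green), unfused (red) and ratio luminescence, then classed by r2, magnitude and activity. Cells: OCI-Ly3, 4 h compound plus doxycycline at 37C; 10 uM MG-132 defined full response.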

[1] = measured here: control luc red channel unless noted
[2] = measured here: IkB-luc green channel
[3] = measured here: control luc red channel

Q: Which AC50 [1] does the source give for `Cc1ccc2c(CN3CCN(C(=O)c4ccc(Br)cc4)CC3)cc(=O)oc2c1` here?
A: Its AC50 is 20 µM [falling, partial curve].

Q: With `CCOc1ccc(NC(=O)C2CCCN(c3nnc(C)c4c(C)n(-c5ccccc5)nc34)C2)cc1` (centres undefined) as the molecule, how does the AC50 [1] read?
A: Its AC50 is 39.8 µM [falling, single point].

Q: With `Cn1c(Sc2ccc(-c3cccnc3)n2C)ccc1-c1cccnc1` as the molecule, how does the AC50 [1] read?
A: Its AC50 is 6.31 µM [rising, single point] [measured here: IkB-luc green channel].

Q: Which AC50 [1] does the source give for `O=C(Nc1nccs1)C1CCCN(S(=O)(=O)c2cccc3cccnc23)C1` (centres undefined) here?
A: The AC50 was 10 µM [falling, partial curve].

Q: For `Cc1ccc(CNC(=O)CCNS(=O)(=O)c2cccc3nsnc23)cc1`, which AC50 [1] is on record?
A: The AC50 was 12.6 µM [falling, partial curve].

Q: With `CCn1cc(C(=O)N(C)c2ccc(C(C)C)cc2)c2cc(OC)c(OC)cc2c1=O` as the molecule, how does the AC50 [1] read?
A: The AC50 was 12.6 µM [falling, partial curve, poor fit].

Q: Which AC50 [1] does the source give for `COc1ccc(C2CC(=O)c3c(C)nc(N4CCN(Cc5ccccc5)CC4)nc3C2)cc1OC` (centres undefined) here?
A: The AC50 was 5.01 µM [falling, full curve, poor fit].

Q: For `CCCN(CCC)CC(O)Cn1cc(/C=C/C(=O)c2ccc(Br)cc2)c2ccccc21` (centres undefined), which AC50 [1] is on record?
A: The AC50 was 6.31 µM [falling, partial curve].

Q: With `Cc1c(CCC(=O)N2CCCCC2)c(=O)oc2cc3occ(C(C)(C)C)c3cc12` as the molecule, how does the AC50 [1] read?
A: Its AC50 is 31.6 µM [falling, single point].

Q: With `COc1ccc(CNC(=O)Cc2ccc(NC(=O)N3CCSc4ncccc43)cc2)cc1` as the molecule, how does the AC50 [1] read?
A: Its AC50 is 39.8 µM [falling, single point].

Q: For `Cc1ccc(Cc2nc3ccccc3nc2SCC(=O)N2CCN(c3ccc(F)cc3)CC2)cc1`, which AC50 [1] is on record?
A: The AC50 was 25.1 µM [falling, single point].

Q: With `Cc1ccc(Nc2cc(C)nn2-c2nc(C)cc(C)n2)cc1` as the molecule, how does the AC50 [1] read?
A: Its AC50 is 31.6 µM [falling, single point].

Q: Which AC50 [1] does the source give for `Cc1ccc2oc(NC(=O)N3CCOCC3)cc(=O)c2c1` here?
A: Its AC50 is 39.8 µM [falling, single point].

Q: For `Cc1cc(C)c(Cn2c(C3CC(=O)N(c4ccc(F)cc4)C3)nc3ccccc32)c(C)c1` (centres undefined), which AC50 [1] is on record?
A: Its AC50 is 15.8 µM [falling, partial curve].

Q: With `COc1cccc(NC(=O)CSc2nc(=O)n(Cc3ccncc3)c3c2CCC3)c1` as the molecule, how does the AC50 [1] read?
A: The AC50 was 7.94 µM [falling, full curve].

Q: Which AC50 [1] does the source give for `Cc1cc(NC(=O)CCC(=O)N(c2ccccc2)C(C(=O)NC2CCCC2)c2cccs2)no1` (centres undefined) here?
A: Its AC50 is 15.8 µM [falling, partial curve].

Q: Which AC50 [1] does the source give for `CCNc1nc2c(c(=O)n(Cc3ccccc3)c(=O)n2C)n1Cc1ccccc1` here?
A: The AC50 was 15.8 µM [falling, single point].

Q: Which AC50 [1] does the source give for `CCCCNS(=O)(=O)c1ccc(C)c(-c2nnc3c4ccccc4c(C)nn23)c1` here?
A: Its AC50 is 12.6 µM [falling, partial curve].

Q: Which AC50 [1] does the source give for `O=C(Nc1ccc(Br)cc1)c1ccc(F)c(S(=O)(=O)N2CCc3ccccc32)c1` here?
A: Its AC50 is 20 µM [falling, partial curve].

Q: Which AC50 [1] does the source give for `Cc1ccc(S(=O)(=O)C(CNC(=O)C(=O)NCc2ccccc2C)c2cccs2)cc1` (centres undefined) here?
A: The AC50 was 15.8 µM [falling, partial curve].

Q: Which AC50 [1] does the source give for `CCNC(=O)c1ccc(CSc2nc3ccncc3n2Cc2ccc(F)cc2)cc1` here?
A: Its AC50 is 31.6 µM [falling, single point].

Q: For `O=C(OCC(=O)N1CCc2ccccc21)c1ccccc1`, which AC50 [1] is on record?
A: Its AC50 is 12.6 µM [falling, partial curve].

Q: For `CC(=O)Nc1nc(-c2ccccc2)nc(-c2ccccc2OC(C)=O)n1`, which AC50 [1] is on record?
A: Its AC50 is 20 µM [falling, partial curve].

Q: With `COc1ccc(-c2noc(-c3ccccc3C(=O)Nc3cccc(OC)c3)n2)cc1` as the molecule, how does the AC50 [1] read?
A: Its AC50 is 15.8 µM [falling, partial curve].

Q: Which AC50 [1] does the source give for `CCc1ccc(Nc2cc(=O)n(C3CCCCC3)c(=O)[nH]2)cc1` here?
A: The AC50 was 31.6 µM [falling, single point].

Q: Which AC50 [1] does the source give for `Oc1c(CN2CCc3ccccc3C2)cc(Cl)c2cccnc12` here?
A: The AC50 was 1.26 µM [rising, full curve] [measured here: IkB-luc green channel].

Q: With `CNCC[C@H](Oc1ccc(C(F)(F)F)cc1)c1ccccc1` as the molecule, how does the AC50 [2] read?
A: Its AC50 is 31.6 µM [falling, partial curve, poor fit].

Q: What about the AC50 [3] of the same molecule?
A: The AC50 was 31.6 µM [falling, partial curve].

Q: With `O=C(NCc1ccc(F)cc1)c1ccc2c(c1)nnn2C1CCCC1` as the molecule, how does the AC50 [1] read?
A: Its AC50 is 39.8 µM [falling, single point].

Q: Which AC50 [1] does the source give for `COc1ccc(N2C(=O)CS(=O)(=O)C23C(=O)N(Cc2ccc(C)cc2)c2ccccc23)cc1Cl` (centres undefined) here?
A: The AC50 was 31.6 µM [falling, single point].

Q: For `CCOC(=O)c1c(-c2ccccc2)csc1NC(=O)c1nn(CC)cc1Br`, which AC50 [1] is on record?
A: The AC50 was 10 µM [falling, partial curve].

Q: With `COc1ccc(-c2cc(C)no2)cc1S(=O)(=O)N1CCN(c2ccccc2F)CC1` as the molecule, how does the AC50 [1] read?
A: The AC50 was 25.1 µM [falling, single point].

Q: For `COc1ccc(CCNc2nc3c(-c4cccc(F)c4)nnn3c3ccccc23)cc1OC`, which AC50 [1] is on record?
A: Its AC50 is 0.316 µM [falling, full curve].

Q: With `Cn1c(CSc2nnc(SCc3ccccc3)s2)nc2ccccc21` as the molecule, how does the AC50 [1] read?
A: The AC50 was 15.8 µM [falling, partial curve].

Q: With `CC1CCN(c2nc3c(S(=O)(=O)c4ccc(Cl)cc4)nnn3c3ccsc23)CC1` as the molecule, how does the AC50 [1] read?
A: Its AC50 is 31.6 µM [falling, single point].

Q: With `Cc1onc(-c2c(Cl)cccc2Cl)c1C(=O)NCc1ccco1` as the molecule, how does the AC50 [1] read?
A: The AC50 was 20 µM [falling, partial curve].

Q: Which AC50 [1] does the source give for `Cc1ccccc1NC(=O)CSc1cn(CC(=O)N(C(C)C)C(C)C)c2ccccc12` here?
A: The AC50 was 20 µM [falling, single point].

Q: With `CCc1ccccc1NC(=O)c1ccc(CN2C(=O)CCn3nc(C)cc32)cc1` as the molecule, how does the AC50 [1] read?
A: The AC50 was 20 µM [falling, single point].

Q: Which AC50 [1] does the source give for `CC(=O)c1ccc(NC(=O)c2nc(-c3ccc(C)cc3)n3c2CCCCC3)cc1` here?
A: The AC50 was 0.0126 µM [falling, full curve].

Q: With `COc1ccc(CNc2nc3ccccc3c3nc(-c4ccccc4)nn23)cc1` as the molecule, how does the AC50 [1] read?
A: The AC50 was 0.1 µM [falling, full curve, poor fit].

Q: With `Cc1nn(-c2ccccc2)c2sc(-c3n[nH]c(=S)o3)cc12` as the molecule, how does the AC50 [1] read?
A: Its AC50 is 25.1 µM [falling, single point].

Q: With `CCc1ccc(NS(=O)(=O)c2c(C)nc3sc(CC)nn3c2=O)cc1` as the molecule, how does the AC50 [1] read?
A: The AC50 was 0.501 µM [falling, full curve].

Q: With `CCC1CCCCN1C(=O)CSc1nnc(-c2ccc3c(c2)OCCO3)o1` (centres undefined) as the molecule, how does the AC50 [1] read?
A: Its AC50 is 25.1 µM [falling, partial curve].

Q: Which AC50 [1] does the source give for `Cc1ccc(CSc2oc(-c3cccs3)nc2S(=O)(=O)c2ccccc2)cc1` here?
A: The AC50 was 12.6 µM [falling, partial curve, poor fit].

Q: For `CCOC(=O)N1CCc2c(sc3c2c(=O)n(Cc2ccccc2)c(=O)n3Cc2ccccc2Cl)C1`, which AC50 [1] is on record?
A: Its AC50 is 25.1 µM [falling, single point].

Q: With `Cc1c(NC(=O)c2cc(-c3cccc(O)c3)on2)c(=O)n(-c2ccccc2)n1C` as the molecule, how does the AC50 [1] read?
A: Its AC50 is 12.6 µM [falling, partial curve].

Q: With `COc1cccc(NC(=O)C2CCN(c3nnc(C)c4c(C)n(-c5ccccc5)nc34)CC2)c1` as the molecule, how does the AC50 [1] read?
A: The AC50 was 39.8 µM [falling, single point].

Q: Which AC50 [1] does the source give for `Cc1ccc(S(=O)(=O)N(CC(=O)NCCc2ccc(Cl)cc2)c2ccccc2C)cc1` here?
A: The AC50 was 12.6 µM [falling, partial curve].

Q: Which AC50 [1] does the source give for `COc1ccc(CCNC(=O)c2cnn(-c3ccc(F)cc3)c2C2CCN(C(=O)OC(C)(C)C)CC2)c(OC)c1` here?
A: The AC50 was 6.31 µM [falling, partial curve].

Q: For `CCc1ccccc1NC(=O)N1CCc2c([nH]c3ccccc23)C1c1ccc(C)cc1` (centres undefined), which AC50 [1] is on record?
A: Its AC50 is 7.94 µM [falling, partial curve].

Q: Which AC50 [1] does the source give for `COc1ccc(NC(=O)c2c(NC(=O)COc3ccccc3)sc3c2CCC(C)C3)cc1` (centres undefined) here?
A: The AC50 was 3.98 µM [falling, full curve].

Q: Which results are given for `O=C(Nc1ccccc1C(F)(F)F)c1ccc2oc(=O)c(S(=O)(=O)c3ccc(F)cc3)cc2c1`?
A: AC50 [2]: 3.98 µM [rising, full curve]; AC50 [3]: 25.1 µM [falling, partial curve]

Q: With `O=C(NCCC1=CCCCC1)c1ccc2c(=O)n3nc(Nc4ccccc4)sc3nc2c1` as the molecule, how does the AC50 [1] read?
A: Its AC50 is 31.6 µM [falling, single point].

Q: With `Cc1ccc(NC(=O)CSc2nnc3[nH]c(=O)cc(-c4ccccc4)n23)cc1Cl` as the molecule, how does the AC50 [1] read?
A: Its AC50 is 20 µM [falling, partial curve].

Q: Which AC50 [1] does the source give for `Cc1ccc(C(=O)Nc2nc(COc3ccccc3)cs2)s1` here?
A: Its AC50 is 5.01 µM [falling, partial curve].

Q: Which AC50 [2] does the source give for `CCCn1c(=O)c(C(=O)NCc2ccccn2)c(O)c2ccccc21` here?
A: Its AC50 is 39.8 µM [rising, single point].

Q: And the AC50 [3]?
A: Its AC50 is 25.1 µM [falling, single point].

Q: For `COc1ccc(-c2noc(CCC(=O)Nc3ccc(C(F)(F)F)cc3)n2)cc1`, which AC50 [1] is on record?
A: Its AC50 is 7.94 µM [falling, partial curve].

Q: With `CCCCOc1ccc(S(=O)(=O)Nc2ccc(-c3ccc(N4CCC(C)CC4)nn3)cc2)cc1` as the molecule, how does the AC50 [1] read?
A: The AC50 was 2 µM [falling, full curve].

Q: Which AC50 [1] does the source give for `COc1ccc(S(=O)(=O)Nc2ccc(-c3cn4ccsc4n3)cc2)cc1C` here?
A: The AC50 was 6.31 µM [falling, partial curve].

Q: For `O=C(O)COc1cccc(-c2ocnc2-c2nc(-c3ccccc3)c(-c3ccccc3)o2)c1`, which AC50 [1] is on record?
A: Its AC50 is 0.398 µM [falling, full curve].

Q: For `CCOc1ccc(CCNC(=O)C2CCN(C(=O)c3cc4sccc4n3CC)CC2)cc1OCC`, which AC50 [1] is on record?
A: The AC50 was 20 µM [falling, single point].

Q: For `C=CCc1c(C)nc2nc(SCC(=O)Nc3ccc(C)c(C)c3)nn2c1C`, which AC50 [1] is on record?
A: Its AC50 is 20 µM [falling, partial curve].
